Screen size: about 310,000 compounds; about 17,000 (5.5%) were called active. The shares of active, inactive and inconclusive entries below differ from those in the screen. Calls follow the shape of the dose curve; as a rule, active = well fitted inhibition curve with a large enough effect; inconclusive = small, poorly fitted or top-dose-only effect, or effect the other way; inactive = no such curve, though single readings can be large or run the other way. Potencies beside an inconclusive call are fits to weak or partial responses and may not hold up.
Target: Nuclear receptor ROR-gamma (Mus musculus) (UniProt P51450)
Assay: qHTS for inhibitors of ROR gamma transcriptional activity; also: nearly all actives have a fitted effect of over 60% in size
Settings: Drosophila S2 Gal4-RORgamma UAS-luciferase reporter, 20 h; activity change, negative = inhibition: at 53.6 µM (top of the series)
Procedure, shortened: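 Read-out: Photinus luciferase luminescence; inhibitors lower reporter signal. Insect Schneider cells with Gal4-ROR gamma fusion under metallothionein promoter, UAS reporter; 700 uM final copper sulfate induction, 20 hr, ambient temperature.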
% is scaled to controls: 0 for no effect and ±100 for the full control effect; potency is read from the fitted curve at half-maximal effect.

Amino acid sequences for entries named in this document (tags omitted). A change or cut given only in a name is not applied to a line headed by its entry.
UniProt P51450: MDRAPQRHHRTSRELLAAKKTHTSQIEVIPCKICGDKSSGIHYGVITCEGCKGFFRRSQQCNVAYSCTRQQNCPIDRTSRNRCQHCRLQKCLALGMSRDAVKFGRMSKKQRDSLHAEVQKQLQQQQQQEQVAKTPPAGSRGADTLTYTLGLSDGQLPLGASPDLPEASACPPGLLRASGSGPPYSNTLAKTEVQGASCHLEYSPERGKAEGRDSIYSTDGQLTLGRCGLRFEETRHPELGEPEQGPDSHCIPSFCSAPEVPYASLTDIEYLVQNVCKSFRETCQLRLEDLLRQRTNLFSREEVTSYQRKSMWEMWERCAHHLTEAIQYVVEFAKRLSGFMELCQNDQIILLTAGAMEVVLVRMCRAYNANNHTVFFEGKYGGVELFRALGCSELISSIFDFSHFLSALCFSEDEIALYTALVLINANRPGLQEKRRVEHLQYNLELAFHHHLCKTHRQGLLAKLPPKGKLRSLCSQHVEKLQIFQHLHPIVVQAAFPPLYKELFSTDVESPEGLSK

Row | Structure (SMILES) | Potency | activity change, negative = inhibition
1 | Clc1ccc(-c2nnc(NC3=NCCCCC3)o2)cc1 | active: 6.31 µM | 
2 | CCc1nc(SCC(=O)N2CCC(C)CC2)c2c(=O)n(C)c(=O)n(C)c2n1 | inconclusive: 11.2 µM [activator, partial curve, poor fit] | 
3 | CCCOc1cccc(C(=O)Nc2cccc(NC(=O)c3ccco3)c2)c1 | inconclusive: 14.1 µM [activator, partial curve] | 
4 | Cc1ccc(NCc2nc3ccccc3n2CCOc2ccccc2)cc1 | inconclusive: 35.5 µM [inhibitor, single point] | 
5 | O=C(NN=C1CCCC1)c1[nH]c2ccc(Cl)cc2c1-c1ccccc1 | active: 11.2 µM | 
6 | COc1ccc(/C=C/C(=O)NC(=S)N2CCOCC2)cc1 | active: 3.98 µM | 
7 | O=C(NNC(=O)c1ccccc1Br)c1ccncc1 |  | inactive: 0.937%
8 | O=C(/C=C/c1ccc(-c2ccccc2[N+](=O)[O-])o1)c1ccco1 | inconclusive: 35.5 µM [inhibitor, single point] | 
9 | COc1ccc(CCNC(=O)C2CCN(S(=O)(=O)c3cccs3)CC2)cc1OC | inconclusive: 11.2 µM [activator, partial curve] | 
10 | CCN(CC)c1ccc(/C=N/NC(=O)c2cccc(S(=O)(=O)Nc3ccccc3OC)c2)cc1 | active: 6.31 µM | 
11 | Cc1cc(Nc2ccc(F)cc2C)n2nc(C)nc2n1 |  | inactive: 5.42%
12 | CCN1C(=NCc2cc(OC)c(OC)c(OC)c2)N[C@@H](c2cccc(C(F)(F)F)c2)C(C(=O)OC)=C1C |  | inactive: -8.66%
13 | OCCCNc1nc(-c2ccccc2)c2cc(Br)ccc2n1 |  | inactive: 8.18%
14 | Cc1ccc(/C=C/C(=O)c2cc(Br)ccc2OC(=O)c2ccco2)cc1 | inconclusive: 17.8 µM [inhibitor, single point] | 
15 | O=C(c1ccc(OCCN2CCCCC2)cc1)c1c(-c2ccc(O)cc2)sc2cc(O)ccc12 | inconclusive: 11.2 µM [inhibitor, single point] | 
16 | O=C(c1ccc(C#CC2(O)CCCCC2)cc1)N1CCN(Cc2ccccc2)CC1 | inconclusive: 14.1 µM [activator, single point] | 
17 | Cc1ccccc1NC(=S)N(Cc1cccs1)C1CCCCC1 | active: 12.6 µM | 
18 | NC(=S)N=Nc1c(O)[nH]c2cc(F)c(F)cc12 | active: 3.16 µM | 
19 | CCOC(=O)c1ccc(NC(=O)c2nc[nH]c2C(=O)N2CCC(C)CC2)cc1 | active: 10 µM | 
20 | Cc1ccc(-c2nnn(CC(=O)N(CC(=O)NC3CCCCC3)c3ccccc3F)n2)o1 |  | inactive: 21.7%
21 | COC(=O)[C@@]1(Cc2ccc(OC)cc2)[C@H]2c3cc(C(=O)N(C)C)n(Cc4ccc(OC(F)(F)F)cc4)c3C[C@H]2CN1C(=O)c1ccccc1 | inconclusive: 22.4 µM [activator, single point] | 
22 | O=C(Nc1ccccc1)c1cc([N+](=O)[O-])ccc1NCc1cccnc1 | inconclusive: 14.1 µM [activator, partial curve] | 
23 | CCOc1ccc(C2NC(=O)C(C#N)=C(S)N2c2ccc(C)cc2)cc1OC (stereo not drawn) | active: 14.1 µM | 
24 | C/C(=N\Nc1ccccn1)c1ccc2c(c1)OCO2 | inconclusive: 20 µM [inhibitor, single point] | 
25 | C/C(=N\NC1=NCCN1)c1ccc(N)c([N+](=O)[O-])c1 | inconclusive: 35.5 µM [inhibitor, single point] | 

Row | Structure (SMILES) | Potency | activity change, negative = inhibition
26 | Fc1cc(Br)ccc1COc1ccc(-c2nnco2)cc1 | inconclusive: 3.16 µM [activator, full curve] | 
27 | CCSc1nnc(NC(=O)c2cccc3ccccc23)s1 | inconclusive: 0.316 µM [inhibitor, full curve, poor fit] | 
28 | Cc1ccc(Cl)cc1NC(=O)c1cc(NC(=O)CCCC(=O)O)ccc1N1CCCCC1 |  | inactive: -11.3%
29 | COc1ccc(C)cc1NC(=O)c1sc2nc(C)nc(N3CCOCC3)c2c1C |  | inactive: -12.5%
30 | CCOC(=O)c1ccc(NC(=S)NC(=O)c2cncc(Br)c2)cc1 | active: 2.24 µM | 
31 | COc1ccc(/C=N/NC(=O)c2ccc(COc3ccccc3Cl)o2)c(OC)c1C | inconclusive: 35.5 µM [inhibitor, single point] | 
32 | COc1ccc2c(c1)c(C(C)=O)c(C)n2-c1ccc(C(C)=O)cc1 |  | inactive: 12.6%
33 | CCC(=O)NC(Nc1sc2c(c1C(=O)OC)CCC2)C(Cl)(Cl)Cl (stereo not drawn) |  | inactive: -2.96% [at 10 µM]
34 | O=C(NCC1CCCO1)C(=O)NCC(c1ccco1)N1CCN(c2ccccc2F)CC1 (stereo not drawn) | inconclusive: 35.5 µM [activator, partial curve] | 
35 | CCCCC[C@H]1CN(C2CCCCC2)C(=O)[C@@H]1CC(=O)NCc1ccc(OC)cc1 |  | inactive: 30.1%
36 | Cc1ccc(-c2cc(C(F)F)n3ncc(C(=O)N4CCCc5ccccc54)c3n2)cc1 |  | inactive: -5.78%
37 | Cc1ccc(NC(=O)c2cc3ccccc3oc2=N)cc1 | inconclusive: 1.41 µM [inhibitor, full curve, poor fit] | 
38 | Cc1[nH]cc(Br)c(=O)c1Oc1ncc(C(F)(F)F)cc1Cl | inconclusive: 8.91 µM [activator, partial curve] | 
39 | COc1cc(CCC(O)CC(=O)CCc2ccccc2)ccc1O (stereo not drawn) | inconclusive: 11.2 µM [activator, partial curve] | 
40 | CCN(CC)CCOC(=O)c1ccc(NC(=O)c2cn(-c3ccccc3)nc2-c2cccs2)cc1 | inconclusive: 35.5 µM [inhibitor, single point] | 
41 | O=S(=O)(c1ccc2ccccc2c1)N1CCc2ccccc21 | inconclusive: 35.5 µM [activator, single point] | 
42 | O=C(c1ccc([N+](=O)[O-])s1)N1CCc2ccccc2C1 |  | inactive: -17.8%
43 | CC(=NCCN1CCOCC1)C1=C(O)c2ccccc2C1=O | inconclusive: 11.2 µM [activator, single point] | 
44 | COCCCn1c(-c2ccc(OC)cc2)nc2nc3ccccc3nc21 | inconclusive: 2.82 µM [activator, full curve, poor fit] | 
45 | O=C(CSc1ccc(Cl)cc1)Nc1ccccc1Oc1ccccc1 |  | inactive: 1.6%
46 | COc1ccc(CCNC(=O)c2cc(-c3cc(C)c(C)cc3O)n[nH]2)cc1OC | inconclusive: 0.447 µM [inhibitor, single point] | 
47 | Nc1nnc(SC2CCCC2)s1 |  | inactive: 21.9%
48 | O=S(=O)(c1ccc(Cl)c(NC(=S)Nc2ccccc2N2CCOCC2)c1)N1CCOCC1 | inconclusive: 14.1 µM [inhibitor, single point] | 
49 | CC(C)=CCc1c(O)cc2occ(-c3ccc4c(c3)OCO4)c(=O)c2c1O | inconclusive: 0.794 µM [inhibitor, full curve] | 
50 | Cc1cccc(N=Nc2c(C)[nH]n(-c3ccccc3)c2=O)c1 | inconclusive: 3.98 µM [inhibitor, partial curve] | 

3 compounds drawn at random from the list so far:
Row | Structure (SMILES) | Potency | activity change, negative = inhibition
31 | COc1ccc(/C=N/NC(=O)c2ccc(COc3ccccc3Cl)o2)c(OC)c1C | inconclusive: 35.5 µM [inhibitor, single point] | 
37 | Cc1ccc(NC(=O)c2cc3ccccc3oc2=N)cc1 | inconclusive: 1.41 µM [inhibitor, full curve, poor fit] | 
28 | Cc1ccc(Cl)cc1NC(=O)c1cc(NC(=O)CCCC(=O)O)ccc1N1CCCCC1 |  | inactive: -11.3%

(cont.)

Row | Structure (SMILES) | Potency | activity change, negative = inhibition
51 | C=C1C(=O)OC2C[C@@]3(C)CCCC(=C)[C@@H]3CC12 (stereo partly drawn) | inconclusive: 35.5 µM [inhibitor, single point] | 
52 | O=C(OCC(=O)N1CCCCC1)c1cc2ccccc2cc1O |  | inactive: 6.31%
53 | O=C(CN1CCCC1)Nc1nc(-c2ccc3c(c2)CCN3C(=O)c2ccccc2F)cs1 |  | inactive: 8.68%
54 | COC(=O)COc1ccc2c(=O)c(-c3ccccc3)coc2c1 |  | inactive: 12.7%
55 | CCC(=O)Nc1cccc(C(=O)/C=C/c2cccs2)c1 | inconclusive: 35.5 µM [inhibitor, single point] | 
56 | O=C(Nc1nccs1)c1ccc(CSc2nnnn2-c2ccccc2)cc1 | inconclusive: 22.4 µM [inhibitor, single point] | 
57 | c1ccc(C2CCC3(CC2)Oc2ccccc2C2CC(c4cccnc4)=NN23)cc1 (stereo not drawn) | inconclusive: 20 µM [inhibitor, single point] | 
58 | CCc1cc(=O)oc2cc(C)cc(OCC(=O)N3CCC(C(=O)O)CC3)c12 |  | inactive: -8.64%
59 | CC1(C)C(=O)OC(c2c3ccccc3cc3ccccc23)C(C)(C)C1=O (stereo not drawn) | inconclusive: 20 µM [activator, single point] | 
60 | CCOC(=O)c1c(NC(=O)c2ccc(N3C(=O)[C@@H]4[C@H](C3=O)[C@H]3C=C[C@@H]4C3)cc2)sc2c1CC(C)CC2 (stereo partly drawn) |  | inactive: 7.36%
61 | COc1ccc(C(=O)NC(=S)NC(C)(C)C)cc1Br | active: 2 µM | 
62 | CCCC(=O)NC(=S)Nc1ccc(N2CCOCC2)c(Cl)c1 | active: 12.6 µM | 
63 | CCOC(=O)c1c(C)[nH]c(N=Nc2ccccc2Cl)c1C | inconclusive: 1.41 µM [inhibitor, full curve] | 
64 | CC(CCc1ccccc1)NC(=O)CN1CCN(Cc2ccc(Cl)cc2)C1=O (stereo not drawn) | inconclusive: 0.708 µM [inhibitor, full curve, poor fit] | 
65 | CN(Cc1nc2ccccc2n1C)S(=O)(=O)c1ccc(Cl)cc1 | inconclusive: 10 µM [inhibitor, partial curve, poor fit] | 
66 | CCCOc1ccc(-c2c(C(=O)N/N=C/c3ccc(C)cc3)nnn2-c2nonc2N)cc1 | inconclusive: 14.1 µM [inhibitor, single point] | 
67 | CCc1ccccc1N1C(=O)CC(Sc2nccc(C)n2)C1=O (stereo not drawn) | inconclusive: 22.4 µM [inhibitor, single point] | 
68 | Nc1cccc2cnccc12 |  | inactive: -9.25%
69 | Cn1c(=O)c(=O)n(C)c2cc(N3CCOCC3)c(NS(=O)(=O)c3ccc(Br)cc3)cc21 |  | inactive: -16.1%
70 | CN1CCN(S(=O)(=O)c2ccc(Cc3ccc(S(=O)(=O)N4CCN(C)CC4)cc3)cc2)CC1 |  | inactive: 14.1%
71 | COc1ccc(CC(=O)Nc2cccc(/C(C)=N/NC(=O)c3cccc([N+](=O)[O-])c3)c2)cc1 | inconclusive: 15.8 µM [inhibitor, single point] | 
72 | CCCn1c(=N)n(CC(=O)C(C)(C)C)c2ccccc21 | inconclusive: 5.62 µM [inhibitor, single point] | 
73 | O=C(CC(=O)c1ccccc1)Nc1cc([N+](=O)[O-])ccc1Cl | inconclusive: 10 µM [activator, partial curve] | 
